Library screen at single concentrations

By UniProt entry, the sequences of proteins in these tests, tags left out. Residues count along the entry.
UniProt Q4DA54, 1-478: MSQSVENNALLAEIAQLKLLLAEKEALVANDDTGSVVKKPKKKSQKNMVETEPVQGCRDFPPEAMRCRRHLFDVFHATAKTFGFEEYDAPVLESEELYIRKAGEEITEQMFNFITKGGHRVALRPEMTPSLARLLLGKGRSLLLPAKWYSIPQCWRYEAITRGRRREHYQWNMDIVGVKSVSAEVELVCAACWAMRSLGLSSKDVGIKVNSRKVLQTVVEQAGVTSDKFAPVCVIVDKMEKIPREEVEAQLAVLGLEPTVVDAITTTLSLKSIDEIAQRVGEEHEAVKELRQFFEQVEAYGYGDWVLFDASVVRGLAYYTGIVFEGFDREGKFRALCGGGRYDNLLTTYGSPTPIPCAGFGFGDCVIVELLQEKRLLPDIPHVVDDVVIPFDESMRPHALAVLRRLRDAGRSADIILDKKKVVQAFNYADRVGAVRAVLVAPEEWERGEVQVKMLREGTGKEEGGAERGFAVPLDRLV
UniProt P9WNZ1, whole entry: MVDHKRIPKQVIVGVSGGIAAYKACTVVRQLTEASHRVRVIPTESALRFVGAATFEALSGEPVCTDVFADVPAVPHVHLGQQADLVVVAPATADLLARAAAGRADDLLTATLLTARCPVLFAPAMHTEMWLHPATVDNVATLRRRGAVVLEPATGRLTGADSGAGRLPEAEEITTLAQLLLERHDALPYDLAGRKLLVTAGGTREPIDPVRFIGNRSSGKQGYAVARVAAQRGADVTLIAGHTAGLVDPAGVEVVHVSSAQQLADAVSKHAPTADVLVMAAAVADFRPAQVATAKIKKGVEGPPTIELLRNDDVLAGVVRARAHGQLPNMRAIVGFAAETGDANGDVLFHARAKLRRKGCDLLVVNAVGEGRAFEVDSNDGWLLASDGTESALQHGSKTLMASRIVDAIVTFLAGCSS

Measurements from “University of Dundee, Small-Polar-MMV Screening Library” (2021), ChEMBL document CHEMBL3988442.

The filed quantity is “Percent Effect” (%).
How 0% and 100% were set is not recorded. Most values in the screen are low, and negative values occur.
The compounds are a random part of those screened.
A dash means the value is not listed here; it may have been measured.

TcHisRS: 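Histidine-tRNA ligase, Trypanosoma cruzi CL Brener (UniProt Q4DA54). Enzyme assay of histidyl-tRNA synthetase; the read-out is not stated. Tested at 30 µM. Higher reads as stronger inhibition (inferred: compounds with an IC50 in retests scored well above the rest). Of about 69,000 compounds tested this way, about 31 (0.045%) reached 50% or more in at least one test.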
CoaBC: 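Coenzyme A biosynthesis protein CoaBC, Mycobacterium tuberculosis (UniProt P9WNZ1). Enzyme assay of CoaBC with a phosphate dye (Biomol Green) read at 650 nm. Concentration: 30 µM. Direction is inferred from only a few compounds that gave an IC50; most scored high, so higher reads as stronger inhibition. Most strong results did not repeat in a second test. Of about 67,000 compounds tested this way, about 40 (0.06%) reached 50% or more in at least one test.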

compound | TcHisRS | CoaBC
CC(NC(=O)NCc1ccccn1)c1cccs1 (stereo not drawn) | 5.473% | 0.6274%
O=C(NCc1ccccn1)[C@]12COC[C@H]1CN(Cc1cccnc1)C2 | 5.607% | -4.938%
O=C1C=CC=N/C1=C(/O)NCCNS(=O)(=O)N1CCCCCC1 | 5.882% | -9.565%
Cc1ccc(C(=O)NCc2cccnc2-n2cncn2)cc1S(C)(=O)=O | 1.205% | -0.2545%
O=C(c1cnccn1)N1CCCC(Cc2cncc3ccccc23)C1 (stereo not drawn) | 9.125% | 3.09%
CC(C)(C)c1cnc(CN2CCCC2Cn2cccn2)o1 (stereo not drawn) | 2.256% | 6.17%
O=C(NCC1CCOC1)c1csc(-c2ccco2)n1 (stereo not drawn) | 2.29% | 0.4819%
CCC(C)N(Cc1ccsc1)C(=O)c1ccc2[nH]nnc2c1 (stereo not drawn) | 3.03% | 6.061%
CCN(CC)CC(=O)Nc1ccc(-n2ccc(C(N)=O)n2)cc1 | 9.036% | 7.927%
Cc1cc(S(=O)(=O)N(CC(N)=O)CC(C)C)ccc1Br | 8.333% | -3.502%
Cc1nc(CN2C(=O)C[C@H]3[C@H]2CCN3C2CCOC2)cs1 (stereo partly drawn) | 5.025% | 7.593%
CSCCc1nc(-c2ccc3c(c2)OCO3)n(C)n1 | 3.448% | 2.258%
COc1ccc(-n2nnc(C(=O)O)c2-c2ccccn2)cc1 | 1.754% | 1.01%
Cc1ccc(NS(=O)(=O)c2cccc(C#N)c2)c(CN(C)C)c1 | 8.108% | 4.091%
Cc1nc(C)n(CC2CCCN(CCCS(=O)(=O)N(C)C)C2)n1 (stereo not drawn) | 3.093% | 0.7335%
Cc1cccc(CN2CC[C@@H]3[C@@H]2CCN3Cc2cccs2)n1 | 10.55% | 5.074%
COCC1CN(Cc2ccccn2)Cc2cn(C)nc21 (stereo not drawn) | 2.956% | -1.269%
COCc1nnn2c1CN(C(=O)c1c[nH]cn1)CCC2 | 6.952% | -4.167%
COCC(=O)NCc1cc(=O)n2c(n1)CN(C)CCC2 | 10.58% | 3.21%
COc1c(CNC(C)c2sc(C)nc2C)c(C(C)C)nn1C (stereo not drawn) | 6.667% | 5.785%
COc1cccc(S(=O)(=O)NC(=O)COc2c(C)cccc2C)c1 | 4.58% | 2.651%
CC(C)(C)c1nc(CN2CCOC(Cn3cccn3)C2)no1 (stereo not drawn) | 1.729% | -9.318%
O=C(COC1CCCC1)NC(C(=O)Nc1cc[nH]n1)c1ccccc1 (stereo not drawn) | 10.59% | -3.931%
CC(C)SCCn1ccc2[nH]c(=O)c(C#N)cc2c1=O | 6.806% | 10.08%
Cc1cc(C(F)(F)F)nc(CNC(=O)C2CCCCCN2C)n1 (stereo not drawn) | 0.578% | -0.4963%
O=C(c1ccoc1)N1CCC2(C1)CN(c1ncccn1)C2 | 9.804% | -0.6515%
Cc1ccc(CN2CCC3(CC2)CCN(Cc2ccoc2)CC3)cc1 | 1.149% | -19.35%
CCc1nc(CN(C)C(=O)NCc2cccc(NC(C)=O)c2)cs1 | 4.04% | 3.241%
CC(C)n1cnc2c(N3CCCC3)nc(C3CCNCC3)cc21 | 0% | -20.85%
CN(C)CCOCC1CN(C(=O)c2ccnnc2)Cc2ccnn2C1 (stereo not drawn) | 5.882% | 4.886%
Cc1ccoc1C(=O)N1CCCC(CNS(C)(=O)=O)C1 (stereo not drawn) | 3.198% | 7.334%
CC(C)NS(=O)(=O)c1cc(C(=O)O)cc(-c2ccccc2CO)c1 | -1.163% | 9.442%
CN1Cc2c(C(=O)N3CCOCC3)ncn2-c2ccccc2S1(=O)=O | 1.604% | 4.167%
O=C(NCCN1CCOC1=O)c1ccc2sccc2c1 | 7.097% | 0.2415%
OCCc1ncnn1Cc1cccc(Cl)c1 | -10.71% | 2.642%
CCO[C@H]1COC[C@@H]1NC(=O)c1c[nH]nc1C1CCCCC1 | 1.299% | -0.9756%
Cc1cccc(C(=O)N2CCCC2)c1NCC(=O)NC1(C#N)CCCC1 | 9.554% | -
O=C(CCNS(=O)(=O)c1ccc2c(c1)CCCC2)NCc1ccoc1 | 2.075% | -8.482%
O=C(Nc1ncn(Cc2cccc(Br)c2)n1)C1CCC1 | 1.685% | 4.225%
COCCc1noc(CN(C)c2nc(C)cc(C)n2)n1 | -3.483% | 8.642%
CC(=O)N1CCC(CCNC(C)c2cc(F)cc(F)c2)CC1 (stereo not drawn) | 2.186% | 9.535%
O=C([C@@H]1C[C@@H]2CCN(CCc3ccccc3)C[C@H]2O1)N1CCCC1 | 1.639% | 12.44%
O=S1(=O)NC[C@H]2CCN(Cc3ccccc3)CC[C@H]21 | 4.301% | 6.131%
CN(C)Cc1nn(C)c2c1CN(S(=O)(=O)c1ccccc1F)C2 | 6.452% | -16.21%
CCN1C(=O)CCC12CCCN(Cc1nccs1)CC2 (stereo not drawn) | 4.918% | -1.554%
COc1cc(OC)cc(-c2cccc3c2OC(CN)C3)c1 (stereo not drawn) | 5.455% | 10.71%
CCCc1cc(NC(=O)c2ccc(Cl)c(N3CCNC3=O)c2)n[nH]1 | 3.175% | -2.686%
Cn1ccnc1CN1CCN(CC(O)c2ccco2)CC1 (stereo not drawn) | -2.642% | 5.897%
C=C(C)COc1ccccc1CNC(CC)c1ccnn1C (stereo not drawn) | 3.518% | 1.086%
COc1cccc(-n2nnc(C(=O)N3CCCC(C)C3)c2C)c1 (stereo not drawn) | 5.572% | 6.842%
CC(C)NC(=O)c1cccc(Oc2ccc3nncn3n2)c1 | 4.95% | 1.205%
COCC(=O)N1C[C@H]2CCCC(OCc3cccnc3)[C@H]2C1 (stereo partly drawn) | 9.804% | 7.818%
Cc1cc(C(F)(F)F)cc(=O)n1CCn1cc(Cl)cn1 | 0.9662% | -2.36%
Cc1ccc(CNC(=O)C2CCCCN2C(=O)OC(C)(C)C)cn1 (stereo not drawn) | 2.116% | 5.325%
CCc1nc(N2CCC3(CCC(=O)N(CCCO)C3)CC2)no1 | 1.554% | 5.724%
Cc1c(Cl)cccc1S(=O)(=O)N1CCC(S(=O)(=O)c2nncn2C)CC1 | 0% | 1.018%
CNC(=O)C1(c2cnccn2)CCCN1C(=O)c1ccc(OC)cc1 (stereo not drawn) | 11.7% | -4.412%
O=C(C1CCOCC1)N1CCO[C@H]2[C@@H](OCc3ccncc3)CC[C@@H]21 | 2.674% | 13.87%
O=C(Cc1csc(-c2ccco2)n1)N1CCCC1Cn1cccn1 (stereo not drawn) | 2.825% | 0.2611%
COc1ccc(Oc2ncccc2NC(=O)N2CC[C@H](O)C2)cc1 | 5.978% | 13.22%
OC1(CNc2ccc(Br)cn2)CCSCC1 | 4.813% | -1.739%
CN(C)S(=O)(=O)N1C[C@H]2CCC[C@@]2(COCc2cccnc2)C1 | 2.299% | 5.092%
CCNC(=O)C1CCN(c2cc(CC)nc3ccnn23)C1 (stereo not drawn) | 1.685% | -1.408%
COc1ccc(CN2Cc3nnn(C)c3C(COCCN(C)C)C2)cc1 (stereo not drawn) | -11.21% | -10.12%
Cc1cc(CN(C)C(=O)C2CCCN(C(N)=O)C2)no1 (stereo not drawn) | 10.12% | 5.725%
CCn1nccc1C(=O)N1CCCCC1CCc1ccc(O)cc1 (stereo not drawn) | -0.5405% | -43.18%

The first 7 entries again:

| compound | TcHisRS | CoaBC |
|---|---|---|
| `CC(NC(=O)NCc1ccccn1)c1cccs1` (stereo not drawn) | 5.473% | 0.6274% |
| `O=C(NCc1ccccn1)[C@]12COC[C@H]1CN(Cc1cccnc1)C2` | 5.607% | -4.938% |
| `O=C1C=CC=N/C1=C(/O)NCCNS(=O)(=O)N1CCCCCC1` | 5.882% | -9.565% |
| `Cc1ccc(C(=O)NCc2cccnc2-n2cncn2)cc1S(C)(=O)=O` | 1.205% | -0.2545% |
| `O=C(c1cnccn1)N1CCCC(Cc2cncc3ccccc23)C1` (stereo not drawn) | 9.125% | 3.09% |
| `CC(C)(C)c1cnc(CN2CCCC2Cn2cccn2)o1` (stereo not drawn) | 2.256% | 6.17% |
| `O=C(NCC1CCOC1)c1csc(-c2ccco2)n1` (stereo not drawn) | 2.29% | 0.4819% |